PubChem BioAssay AID504786 – Drosophila RNAi Screening Center – 2011
Screen: 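Positive regulators of HIF-driven reporter output in Drosophila cells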 (primary screen). Cell system: Drosophila S2 cells with a stable HIF luciferase reporter. Knock-down reagent: long dsRNA against Drosophila genes, about 0.2 µg dsRNA per well of a 384-well plate. Time to read-out: three days of knock-down, then 20 h of DFO before reading. Treatment: desferrioxamine (DFO) at 100 µM, an iron chelator that mimics hypoxia, for 20 h. Measured: 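Firefly luciferase driven by the mouse ldh-a hypoxia-response element, measured after 20 h of 100 µM DFO; z-scores per plate, higher means more signal lost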. Direction: z-score: higher = stronger loss of HIF reporter signal.
The deposit covers about 21,000 reagents; this is a random part of those that have a named target and a result. 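Primary screen; positive scores mean lost reporter signal, so the sign may be inverted from the usual convention.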 The numbers tell different reagents against one gene apart. Names joined by + are all predicted targets of the reagent.

predicted target	reagent no.	z-score, replicate 1	z-score, replicate 2	z-score, replicate 3	z-score, replicate 4
Vps29 (Vacuolar protein sorting 29)	1	-0.3	-0.3		
Obp46a (Odorant-binding protein 46a)	1	-0.2	0.1		
Tsp68C (Tetraspanin 68C)	1	0.3	-0.5		
Srp54k (Signal recognition particle 54k)	1	-0.7	-1.4		
CCAP-R (Crustacean cardioactive peptide receptor)	1	-0.1	-0.5		
CCAP-R (Crustacean cardioactive peptide receptor)	2	-0.3	-0.7		
Idgf3 (Imaginal disc growth factor 3)	1	-0.3	-0.5		
CG5906	1	-0.2	0.2		
CG14451	1	-0.1	0.2		
CG14673 (retired record)	1	-0.4	-0.7		
Rab6	1	-0.3	-0.3		
CG8939	1	-0.1	0.4		
CG30156	1	-0.4	-0.3		
SLO2 (slowpoke 2)	1	5.2	3.4		
SLO2 (slowpoke 2)	2	-0.3	-0.3		
SLO2 (slowpoke 2)	3	-0.2	-0.5		
SLO2 (slowpoke 2)	4	-0.3	-0.5		
SLO2 (slowpoke 2)	5	2.4	2.2		
Dus2 (Dihydrouridine synthase 2)	1	-0.2	-0.3		
CG8838	1	-0.2	-0.3		
Blos2	1	-0.2	-0.4		
CG2604	1	-0.4	-0.3		
alpha-Est6 (alpha-Esterase-6)	1	-0.3	-0.4		
CG9449	1	-0.3	-0.2		
Srg2 + CG42826	1	0	0.6		
Srg2 + CG42826	2	-0.1	-0.1		
CG6497	1	-0.2	-0.4		
eIF2gamma (eukaryotic translation initiation factor 2 subunit gamma)	1	4	4.1		
eIF2gamma (eukaryotic translation initiation factor 2 subunit gamma)	2	0	0		
meigo (medial glomeruli)	1	0.2	-0.1		
CG13607	1	-0.2	0.1		
CG15820	1	-0.2	-0.2		
narya	1	-0.3	-0.7		
Paris (Parkin Interacting Substrate)	1	-0.3	0		
CG6701	1	-0.3	-0.5		
CG18744	1	-0.3	-0.7		
BHD (Birt-Hogg-Dube)	1	-0.3	-0.1		
kuk (kugelkern)	1	-0.3	-0.7		
FASN2 (Fatty acid synthase 2)	1	-0.3	-0.3		
FASN2 (Fatty acid synthase 2)	2	-0.4	-0.6		
Pex3 (Peroxin 3)	1	-0.4	-0.5		
tud (tudor)	1	-0.3	-0.4		
Srp19 (Signal recognition particle 19)	1	-0.7	-1.2		
Tdc2 (Tyrosine decarboxylase 2)	1	0.1	-0.2		
Nxt1 (NTF2-related export protein 1)	1	1	2.4		
CG13457	1	-0.3	0.3		
CR12628 + Mgstl	1	-0.2	-0.5	-0.4	-0.3
CR12628 + Mgstl	2	-0.3	0.3		
ATPsyngamma (ATP synthase, gamma subunit)	1	1.8	1		
AIMP1 (aaRS-interacting multifunctional protein 1)	1	-0.4	-0.4		
Dh31 (Diuretic hormone 31)	1	-0.3	-0.6		
CG17687	1	0.1	0		
tHMG1 (testis-enriched HMG-box-containing protein 1)	1	-0.3	0		
Mur82C (Mucin related 82C)	1	1.4	0.9		
Mur82C (Mucin related 82C)	2	-0.3	-0.9		
Usp32 (Ubiquitin specific protease 32)	1	-0.2	0.3		
RpL4 (Ribosomal protein L4)	1	6.6	5.8		
Trap1	1	-0.1	-0.3		
CG5928	1	-0.3	0	0.1	-0.3
ple (pale)	1	-0.3	-0.1		
amd (alpha methyl dopa-resistant)	1	-0.3	-0.6		
amd (alpha methyl dopa-resistant)	2	-0.2	-0.6		
CG34301	1	-0.3	-0.3		
CG8245	1	0	-0.2		
Scgbeta (Sarcoglycan beta)	1	-0.2	-0.4		
CG5194	1	-0.3	-0.6		
CG30020	1	1.2	0.7		
CG30020	2	1	1.3		
CG32694	1	-0.1	0.9		
CG32694	2	-0.1	-0.7		
lncRNA:sphinx (long non-coding RNA:sphinx)	1	0.7	-0.2		
CG1607	1	-0.3	-0.6		
CG9391	1	-0.1	0.4		
bbx + waw	1	-0.5	-0.6		
bbx + waw	2	-0.1	0.5		
CG10068	1	-0.3	-0.5		
Sec6 (Secretory 6)	1	-0.2	0		
CG4520	1	-0.5	-0.6		
CG10859	1	-0.3	-0.5		
Dad1 (Defender against apoptotic cell death 1)	1	0	1.1		
Or65a (Odorant receptor 65a)	1	0.2	1		
xmas	1	-0.6	-0.2		
indra	1	-0.2	-0.7		
